One experiment addresses T1, GST-UPF1-Hel (human) (UniProt Q92900).
T1 sequence: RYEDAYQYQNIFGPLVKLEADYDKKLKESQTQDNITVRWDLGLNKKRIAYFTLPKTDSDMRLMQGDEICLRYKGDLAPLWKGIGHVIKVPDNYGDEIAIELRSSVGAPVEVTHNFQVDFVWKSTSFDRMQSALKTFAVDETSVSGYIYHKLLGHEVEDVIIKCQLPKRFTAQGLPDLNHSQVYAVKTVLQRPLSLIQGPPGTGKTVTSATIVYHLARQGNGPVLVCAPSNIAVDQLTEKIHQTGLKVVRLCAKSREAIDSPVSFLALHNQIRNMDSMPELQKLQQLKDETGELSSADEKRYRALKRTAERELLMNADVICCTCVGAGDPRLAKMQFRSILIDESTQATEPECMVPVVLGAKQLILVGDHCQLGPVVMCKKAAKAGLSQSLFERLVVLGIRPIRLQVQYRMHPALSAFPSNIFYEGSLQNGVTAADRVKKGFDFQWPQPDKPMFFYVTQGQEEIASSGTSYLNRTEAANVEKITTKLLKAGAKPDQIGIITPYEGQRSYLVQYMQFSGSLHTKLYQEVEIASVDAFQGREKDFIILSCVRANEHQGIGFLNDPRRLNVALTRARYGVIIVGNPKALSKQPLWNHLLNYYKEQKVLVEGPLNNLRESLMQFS
Nature of the experiment: pull-down.

Another experiment deals with T2, 3’hExofl (human, UniProt Q8IV48 1-349).
T2 sequence (looked up): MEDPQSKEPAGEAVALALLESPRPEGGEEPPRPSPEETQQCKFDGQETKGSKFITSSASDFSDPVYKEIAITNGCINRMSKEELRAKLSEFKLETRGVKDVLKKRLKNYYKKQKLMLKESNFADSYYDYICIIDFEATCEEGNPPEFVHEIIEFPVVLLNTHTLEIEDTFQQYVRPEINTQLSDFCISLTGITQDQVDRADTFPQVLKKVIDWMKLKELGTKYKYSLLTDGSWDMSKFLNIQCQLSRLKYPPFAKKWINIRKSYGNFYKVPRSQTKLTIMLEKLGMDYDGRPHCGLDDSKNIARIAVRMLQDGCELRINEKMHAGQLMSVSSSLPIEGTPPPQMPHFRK
Nature of the experiment: SEC.

Results are given in words; binding and its absence hold for the method and conditions named. For part of these data: Binding calls can cover weak binding; strength is not graded here. For part of these data: Tags and fused reporters may be left off the sequences shown.

The source of these data is publication doi:10.1101/2025.02.23.639735 (bioRxiv, 2025).

With “SLBP with internal deletion of amino acids 21-57 (human) (domain or fragment)”, the binding entry with GST-UPF1-Hel (human) was “binds”.

In the case of UPF2ΔAL (human) (domain or fragment), in the experiment with 3’hExofl, the binding result is listed as “no binding”.

In the case of “SLBP with internal deletion of amino acids 31-60 (human) (domain or fragment)”, the binding result in the experiment with GST-UPF1-Hel (human) is recorded as “binds”.
